Measurements taken from the supplement of paper PMC5355238.
Where a name gives a salt, the structure may show the parent alone. The list shows a part of the results. Most entries show no effect beyond the scatter of the controls.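 Using flow cytometry, the assay measures the median γH2AX antibody signal in S-phase Reh cells (a human leukemia line). Each score is the number of standard deviations from the median difference of paired plate sets. Candidate hits scored above 2.5; compounds scoring below -2 lowered MK1775-induced damage.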

These compounds were tested on Reh (assay: Z' of S-phase gammaH2AX difference (drug + MK1775 minus drug alone) (Z-score); higher = stronger synergistic S-phase DNA damage with MK1775). Conditions: MK1775 concentration 400 nM; first compound 10 µM; 4 h.

Row | SMILES | Z' of S-phase gammaH2AX difference (Z-score)
1 | C[C@]12CC[C@@H]3c4ccc(O)cc4C[C@@H](CCCCCCCCC[S+]([O-])CCCC(F)(F)C(F)(F)F)[C@H]3[C@@H]1CC[C@@H]2O (stereo partly drawn) + C=CCn1c(=O)c2cnc(Nc3ccc(N4CCN(C)CC4)cc3)nc2n1-c1cccc(C(C)(C)O)n1 [MK1775] | inactive: -0.0732
2 | CO/N=C(\C(=O)N[C@@H]1C(=O)N2C(C(=O)O)=C(COC(C)=O)CS[C@H]12)c1csc(N)n1 [Cefotaxime sodium] + C=CCn1c(=O)c2cnc(Nc3ccc(N4CCN(C)CC4)cc3)nc2n1-c1cccc(C(C)(C)O)n1 [MK1775] | inactive: 0.307
3 | NC1CCN(O)C1=O (stereo not drawn) + C=CCn1c(=O)c2cnc(Nc3ccc(N4CCN(C)CC4)cc3)nc2n1-c1cccc(C(C)(C)O)n1 [MK1775] | inactive: -0.317
4 | NC(N)=N[C@@H](CCC(=O)O)C(=O)O [alpha-Guanidinoglutaric acid] + C=CCn1c(=O)c2cnc(Nc3ccc(N4CCN(C)CC4)cc3)nc2n1-c1cccc(C(C)(C)O)n1 [MK1775] | inactive: 0.561
5 | Cc1cc(Nc2cc(N3CCN(C)CC3)nc(Sc3ccc(NC(=O)C4CC4)cc3)n2)n[nH]1 [VX-680 (MK-0457, Tozasertib)] + C=CCn1c(=O)c2cnc(Nc3ccc(N4CCN(C)CC4)cc3)nc2n1-c1cccc(C(C)(C)O)n1 [MK1775] | inactive: 0.211
6 | CC(=O)Nc1nnc(S(N)(=O)=O)s1 [Acetazolamide] + C=CCn1c(=O)c2cnc(Nc3ccc(N4CCN(C)CC4)cc3)nc2n1-c1cccc(C(C)(C)O)n1 [MK1775] | inactive: 0.0234
7 | Nc1nc(OCc2cc(Br)cs2)c2[nH]cnc2n1 [Lomeguatrib] + C=CCn1c(=O)c2cnc(Nc3ccc(N4CCN(C)CC4)cc3)nc2n1-c1cccc(C(C)(C)O)n1 [MK1775] | inactive: 0.199
8 | O=C(O)CCC(C(=O)O)N1C(=O)c2ccccc2C1=O [L-Glutamic acid, N-phthaloyl-] + C=CCn1c(=O)c2cnc(Nc3ccc(N4CCN(C)CC4)cc3)nc2n1-c1cccc(C(C)(C)O)n1 [MK1775] | inactive: -0.592
9 | NC[C@@H]1O[C@H](C23CC4CC(CC(C4)C2)C3)Cc2c1ccc(O)c2O + C=CCn1c(=O)c2cnc(Nc3ccc(N4CCN(C)CC4)cc3)nc2n1-c1cccc(C(C)(C)O)n1 [MK1775] | inactive: 0.0635
10 | CC1CCN(CC[C@H]2CCCN2S(=O)(=O)c2cccc(O)c2)CC1 + C=CCn1c(=O)c2cnc(Nc3ccc(N4CCN(C)CC4)cc3)nc2n1-c1cccc(C(C)(C)O)n1 [MK1775] | inactive: 0.349
11 | COc1cc(Nc2c(C#N)cnc3cc(OCCCN4CCN(C)CC4)c(OC)cc23)c(Cl)cc1Cl [Bosutinib (SKI-606)] + C=CCn1c(=O)c2cnc(Nc3ccc(N4CCN(C)CC4)cc3)nc2n1-c1cccc(C(C)(C)O)n1 [MK1775] | inactive: 0.502
12 | CCC1(c2ccccc2)C(=O)NCNC1=O [Primidone] + C=CCn1c(=O)c2cnc(Nc3ccc(N4CCN(C)CC4)cc3)nc2n1-c1cccc(C(C)(C)O)n1 [MK1775] | inactive: -0.301
13 | O=C(O)/C=C/C(O)c1ccc(Cl)cc1 (stereo not drawn) + C=CCn1c(=O)c2cnc(Nc3ccc(N4CCN(C)CC4)cc3)nc2n1-c1cccc(C(C)(C)O)n1 [MK1775] | inactive: 1.14
14 | C[C@]12CCC(=O)C=C1CC[C@@H]1[C@@H]2CC[C@@]2(C)[C@H]1CC[C@]2(O)C(=O)CO [Cortexolone] + C=CCn1c(=O)c2cnc(Nc3ccc(N4CCN(C)CC4)cc3)nc2n1-c1cccc(C(C)(C)O)n1 [MK1775] | inactive: 0.0631
15 | COc1cc2ncnc(Nc3cccc(Br)c3)c2cc1OC + C=CCn1c(=O)c2cnc(Nc3ccc(N4CCN(C)CC4)cc3)nc2n1-c1cccc(C(C)(C)O)n1 [MK1775] | inactive: 0.264
16 | CN(C)CCC(c1ccc(Br)cc1)c1ccccn1 (stereo not drawn) [(?)-Brompheniramine maleate] + C=CCn1c(=O)c2cnc(Nc3ccc(N4CCN(C)CC4)cc3)nc2n1-c1cccc(C(C)(C)O)n1 [MK1775] | inactive: -0.651
17 | COc1ccccc1N1CCN(CCCNc2c(C)c(=O)n(C)c(=O)n2C)CC1 [Urapidil, 5-Methyl-] + C=CCn1c(=O)c2cnc(Nc3ccc(N4CCN(C)CC4)cc3)nc2n1-c1cccc(C(C)(C)O)n1 [MK1775] | inactive: -1.64
18 | CC(C)NCC(O)COc1ccc(CC(N)=O)cc1 (stereo not drawn) [(?)-Atenolol] + C=CCn1c(=O)c2cnc(Nc3ccc(N4CCN(C)CC4)cc3)nc2n1-c1cccc(C(C)(C)O)n1 [MK1775] | inactive: -0.548
19 | Cc1ccc([C@@H]2O[C@H](CO)[C@@H](O)[C@H](O)[C@H]2O)cc1Cc1ccc(-c2ccc(F)cc2)s1 [Canagliflozin] + C=CCn1c(=O)c2cnc(Nc3ccc(N4CCN(C)CC4)cc3)nc2n1-c1cccc(C(C)(C)O)n1 [MK1775] | inactive: -0.178

Row | SMILES | Z' of S-phase gammaH2AX difference (Z-score)
20 | CN1CCN(CC(=O)N2c3ccccc3C(=O)Nc3cccnc32)CC1 [Pirenzepine dihydrochloride] + C=CCn1c(=O)c2cnc(Nc3ccc(N4CCN(C)CC4)cc3)nc2n1-c1cccc(C(C)(C)O)n1 [MK1775] | inactive: 0.621
21 | Oc1cc2c(cc1O)C(c1ccccc1)CNCC2 (stereo not drawn) + C=CCn1c(=O)c2cnc(Nc3ccc(N4CCN(C)CC4)cc3)nc2n1-c1cccc(C(C)(C)O)n1 [MK1775] | inactive: 0.712
22 | Cc1cnc(Nc2ccc(OCCN3CCCC3)cc2)nc1Nc1cccc(S(=O)(=O)NC(C)(C)C)c1 + C=CCn1c(=O)c2cnc(Nc3ccc(N4CCN(C)CC4)cc3)nc2n1-c1cccc(C(C)(C)O)n1 [MK1775] | inactive: -0.725
23 | CCCNC(=O)NS(=O)(=O)c1ccc(Cl)cc1 [Chlorpropamide] + C=CCn1c(=O)c2cnc(Nc3ccc(N4CCN(C)CC4)cc3)nc2n1-c1cccc(C(C)(C)O)n1 [MK1775] | inactive: -0.167
24 | N=C(N)NCCCCNC(=N)N [Arcaine sulfate] + C=CCn1c(=O)c2cnc(Nc3ccc(N4CCN(C)CC4)cc3)nc2n1-c1cccc(C(C)(C)O)n1 [MK1775] | inactive: 0.227
25 | Clc1cccc(Cl)c1NC1=NCCN1 [Clonidine hydrochloride] + C=CCn1c(=O)c2cnc(Nc3ccc(N4CCN(C)CC4)cc3)nc2n1-c1cccc(C(C)(C)O)n1 [MK1775] | inactive: 0.494
26 | CN(C)S(=O)(=O)c1ccc2c(c1)/C(=C/c1cc3c([nH]1)CCCC3)C(=O)N2 + C=CCn1c(=O)c2cnc(Nc3ccc(N4CCN(C)CC4)cc3)nc2n1-c1cccc(C(C)(C)O)n1 [MK1775] | inactive: -0.378
27 | Cc1csc(-c2nnc(Nc3ccc(Oc4ncccc4-c4ccnc(N)n4)cc3)c3ccccc23)c1 + C=CCn1c(=O)c2cnc(Nc3ccc(N4CCN(C)CC4)cc3)nc2n1-c1cccc(C(C)(C)O)n1 [MK1775] | inactive: -0.654
28 | Nc1nc2c(ncn2COC(CO)CO)c(=O)[nH]1 [Ganciclovir] + C=CCn1c(=O)c2cnc(Nc3ccc(N4CCN(C)CC4)cc3)nc2n1-c1cccc(C(C)(C)O)n1 [MK1775] | inactive: 0.687
29 | c1ccc2c(CCNc3ccc(Nc4ccncc4)cc3)c[nH]c2c1 + C=CCn1c(=O)c2cnc(Nc3ccc(N4CCN(C)CC4)cc3)nc2n1-c1cccc(C(C)(C)O)n1 [MK1775] | inactive: 0.653
30 | COc1c(C)cnc(Cn2cnc3c(Cl)nc(N)nc32)c1C + C=CCn1c(=O)c2cnc(Nc3ccc(N4CCN(C)CC4)cc3)nc2n1-c1cccc(C(C)(C)O)n1 [MK1775] | inactive: -0.191
31 | Nc1nccc(Oc2ccc(NC(=O)c3c[nH]cc(-c4ccc(F)cc4)c3=O)cc2F)c1Cl + C=CCn1c(=O)c2cnc(Nc3ccc(N4CCN(C)CC4)cc3)nc2n1-c1cccc(C(C)(C)O)n1 [MK1775] | inactive: 0.623
32 | NC(=O)Nc1cc(-c2cccc(F)c2)sc1C(=O)N[C@H]1CCCNC1 + C=CCn1c(=O)c2cnc(Nc3ccc(N4CCN(C)CC4)cc3)nc2n1-c1cccc(C(C)(C)O)n1 [MK1775] | active: 3.53
33 | O=C(c1ccc(F)cc1)C1CCN(CCn2c(=O)[nH]c3ccccc3c2=O)CC1 [Ketanserin tartrate] + C=CCn1c(=O)c2cnc(Nc3ccc(N4CCN(C)CC4)cc3)nc2n1-c1cccc(C(C)(C)O)n1 [MK1775] | inactive: -1.51
34 | CCN(CC)C(=O)c1ccc(O)c(OC)c1 [Vanillic acid diethylamide] + C=CCn1c(=O)c2cnc(Nc3ccc(N4CCN(C)CC4)cc3)nc2n1-c1cccc(C(C)(C)O)n1 [MK1775] | inactive: -0.274
35 | NC1(C(=O)O)CC1 [1-Aminocyclopropanecarboxylic acid hydrochloride] + C=CCn1c(=O)c2cnc(Nc3ccc(N4CCN(C)CC4)cc3)nc2n1-c1cccc(C(C)(C)O)n1 [MK1775] | inactive: 0
36 | O=C(O)CCc1ccc(NCc2cccc(Oc3ccccc3)c2)cc1 + C=CCn1c(=O)c2cnc(Nc3ccc(N4CCN(C)CC4)cc3)nc2n1-c1cccc(C(C)(C)O)n1 [MK1775] | inactive: 0.199
37 | CSC(=N)N [S-Methylisothiourea hemisulfate] + C=CCn1c(=O)c2cnc(Nc3ccc(N4CCN(C)CC4)cc3)nc2n1-c1cccc(C(C)(C)O)n1 [MK1775] | inactive: 1.22
38 | O=C1NCC2(CCN(CCc3ccccc3)CC2)O1 [Fenspiride hydrochloride] + C=CCn1c(=O)c2cnc(Nc3ccc(N4CCN(C)CC4)cc3)nc2n1-c1cccc(C(C)(C)O)n1 [MK1775] | inactive: 0.342

Individual results from the results shown:
Z' of S-phase gammaH2AX difference (Z-score) with CN(C)CCC(c1ccc(Br)cc1)c1ccccn1 (stereo not drawn) [(?)-Brompheniramine maleate] + C=CCn1c(=O)c2cnc(Nc3ccc(N4CCN(C)CC4)cc3)nc2n1-c1cccc(C(C)(C)O)n1 [MK1775] is entered as inactive: -0.651
Z' of S-phase gammaH2AX difference (Z-score) with C[C@]12CCC(=O)C=C1CC[C@@H]1[C@@H]2CC[C@@]2(C)[C@H]1CC[C@]2(O)C(=O)CO [Cortexolone] + C=CCn1c(=O)c2cnc(Nc3ccc(N4CCN(C)CC4)cc3)nc2n1-c1cccc(C(C)(C)O)n1 [MK1775] is entered as inactive: 0.0631
